Measurements from patent US20120173160A1, “METHODS AND SYSTEMS FOR QUANTITATIVELY ASSESSING BIOLOGICAL EVENTS USING ENERGY-PAIRED SCORING” (The Trustees of the University of Pennsylvania, priority 2010, published 2012).
“Also recorded” adds a separate entry of the source. For at least one compound, name, drawing or mass did not settle the structure.

Test system: Akt-mTOR pathway
Assay: EPS Akt-mTOR pathway score in expression data set of cells treated with 1294 compounds
Format: cell-based
Procedure: A potential application of EPS is to identify inhibitors of a selected pathway by searching for compounds that induce gene expression changes with a strongly negative pathway score. To test EPS's ability to identify small-molecule inhibitors of a pathway from a large library of compounds, an Akt-mTOR pathway signature was developed using gene expression profiles from the prostates of transgenic mice expressing activated Akt that were treated with either the mTOR inhibitor RAD001 or a vehicle control (Majumder et al.). This signature was used to estimate Akt-mTOR pathway activity in a data set derived from three cell lines that had been treated with 1294 different compounds (Lamb et al.). […] In fact, test samples treated with LY-294002 represented 8 of the top 9 samples identified (FIG. 11A).

O=c1cc(N2CCOCC2)oc2c(-c3ccccc3)cccc12 [LY-294002]
Akt-mTOR pathway activity by EPS with increasing concentration (MCF7 cells, 10^−7 M and 10^−5 M): dose-dependent decreases in Akt-mTOR pathway activity; also recorded: dose-dependent decrease in the Akt-mTOR pathway activity | EPS pathway score for the Akt-mTOR pathway (rank in the screen) (data set from three cell lines treated with 1294 different compounds (Lamb et al.), Akt-mTOR signature, listed as LY-29004): largest repressive effect on the Akt-mTOR pathway | enrichment in the score for the Akt-mTOR pathway activity, Komolgrov-Smirnov test (samples of the 1294-compound data set): enrichment of LY-294002 at the negative portion of the score
